Results taken from patent publication US12427179B2, “Compositions and methods for diagnosis and treatment of neurodegenerative diseases” (EPITRACKER, INC., priority 2019, dated 2025).

Assays:
[1] = Serum biochemical quantities, wild dolphins compared to Navy dolphins; assay type: in vivo, bottlenose dolphins (Tursiops truncatus); details: wild (Sarasota Bay) over Navy dolphins
[2] = system: Amyloid-β plaque density; assay: Serum biochemical age-group ratio in dolphins with high vs low brain amyloid-β plaque density; assay type: in vivo, bottlenose dolphins (Tursiops truncatus); details: for Serum biochemical quantity ratio, High density: high amyloid-β plaque density dolphins; for Serum biochemical quantity ratio, Low density: low amyloid-β plaque density dolphins
[3] = ^+26-35 years old:15-25 years old
[4] = 15-to-25-year old over 3-to-15-year old

| Molecule | Serum biochemical quantity ratio, Ratio (wild dolphins compared to Navy dolphins) [1] | further results |
| --- | --- | --- |
| triacylglycerol 54:1-FA18:1 | 4.44 | Serum biochemical quantity ratio, High density [2, 3]: 0.40; Serum biochemical quantity ratio, Low density [2, 3]: 1.15 |
| CC(=O)N[C@H](C(=O)O)[C@@H](C)O [N-acetylthreonine] | 1.93 | – |
| phosphatidylcholine (20:0/20:4) | 3.99 | Serum biochemical quantity ratio, High density [2, 4]: 0.50; Serum biochemical quantity ratio, Low density [2, 4]: 1.00 |
| phosphatidylcholine (20:0/20:3) | 2.63 | Serum biochemical quantity ratio, High density [2, 4]: 0.74; Serum biochemical quantity ratio, Low density [2, 4]: 0.94 |
| CC(=O)N[C@@H](C)C(=O)O [N-acetylalanine] | 2.31 | Serum biochemical quantity ratio, High density [2, 4]: 0.76; Serum biochemical quantity ratio, Low density [2, 4]: 1.09 |
| triacylglycerol 56:4-FA22:4 | 9.19 | Serum biochemical quantity ratio, High density [2, 3]: 0.11; Serum biochemical quantity ratio, Low density [2, 3]: 0.75 |
| phosphatidylethanolamine (P-18:0/22:2) [PE (P-18:0/22:2)] | 0.96 | – |
| N[C@@H](CC(O)C(=O)O)C(=O)O (stereo partly drawn) [4-hydroxyglutamate] | 4.78 | – |
| CN(CC(=O)O)C(=N)N [creatine] | 1.75 | – |
| CCCCCCCCCCCCC/C=C/[C@@H](O)[C@H](CO)NC(=O)CCCCCCCCCCCCC [CER (14:0), ceramide (CER) 14:0] | 1.06 | – |
| N[C@@H](Cc1ccc(OS(=O)(=O)O)cc1)C(=O)O [O-sulfo-L-tyrosine] | 2.14 | – |
| C[C@H](CCC(=O)O)[C@H]1CC[C@H]2[C@@H]3[C@H](O)C[C@@H]4C[C@H](O)CC[C@]4(C)[C@H]3C[C@H](O)[C@]12C [cholate] | 4.51 | – |
| NC(=O)NCCC[C@H](NC(=O)CC[C@H](N)C(=O)O)C(=O)O [gamma-glutamylcitrulline] | 1.2 | – |
| O[C@H]1[C@H](O)[C@@H](O)[C@H](O)[C@@H](O)[C@H]1O [myo-inositol] | 1.53 | – |
| N=C(N)NCCCC(=O)O [4-guanidinobutanoate] | 6.38 | – |
| C[C@H](CCC(=O)O)[C@H]1CC[C@H]2[C@@H]3[C@H](O)C[C@@H]4C[C@H](O)CC[C@]4(C)[C@H]3CC[C@]12C [chenodeoxycholate] | 9.75 | – |
| NCC(CC[C@H](N)C(=O)O)OC1O[C@H](CO)[C@H](O)[C@H](O)[C@H]1O (stereo partly drawn) [5-(galactosylhydroxy)-L-lysine] | 0.90 | – |
| COc1cc(C(O)C(=O)O)ccc1O (stereo not drawn) [vanillylmandelate (VMA), vanillylmandelate] | 1.23 | – |
| Nc1ncnc2c1ncn2[C@@H]1O[C@H](CSCC[C@H](N)C(=O)O)[C@@H](O)[C@H]1O [S-adenosylhomocysteine (SAH), S-adenosylhomocysteine] | 1.3 | – |
| N[C@@H](CCC(=O)N[C@@H](Cc1c[nH]cn1)C(=O)O)C(=O)O [gamma-glutamylhistidine] | 0.87 | – |
